± gives the half width of the 95% confidence interval. The two proteases of the assay disagree for many of these sequences.
How the values were obtained:
[1] = folding stability dG unfold from chymotrypsin proteolysis; higher = more stable
Procedure, shortened: (§1)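 Sequencing followed digestion of designed mini-proteins with trypsin and chymotrypsin, each at 11 concentrations in threefold dilutions together with a no-protease condition. The mini-proteins were under 80 residues, had no cysteine, sat in a PA-tagged cDNA display construct, and were kept only if AlphaFold2 dimer inter-PAE was above 15. From the counts, Bayesian fitting gave K50, and unfolding free energy was derived against a sequence-predicted unfolded-state K50 and a shared folded-state K50, per protease or combined.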

[2] = folding stability dG unfold from trypsin proteolysis; higher = more stable
Experimental: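 Folding stability of de novo designed mini-proteins (<80 aa, no Cys; designed by TrROS, TrMRF, ProteinMPNN and the joint model) was measured by cDNA display proteolysis with trypsin and chymotrypsin. Each protease was used at 11 concentrations in a threefold dilution series plus a no-protease condition. K50 was inferred by Bayesian fitting of sequencing counts, and dG unfold was derived against a sequence-predicted unfolded-state K50 (Tsuboyama et al. method). Sequences shown include variable-length N-terminal GS-type padding (SAGGSAGG...) inside a display construct carrying a PA tag. Rows were kept only if the AF2 dimer inter-PAE was >15, to exclude likely homo-oligomers.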

[3] = folding stability dG unfold (combined trypsin and chymotrypsin); higher = more stable
Procedure, shortened: as §1

| Sequence | folding stability dG unfold [1] [kcal/mol] | folding stability dG unfold [2] [kcal/mol] | folding stability dG unfold [3] [kcal/mol] |
| --- | --- | --- | --- |
| SDEIAELLKKLLEELGYEVEVRVERLPEGEDEIVVTVRVRKPLPEGRVKEVELTLRIKKVDGKLVVELLPSA [r9_489_TrROS_Hall] | 5.34 ± 0.2 | 2.71 ± 0.071 | 4.8 ± 0.12 |
| SAGAKITYDKENKTITITITNKNGYKVTIEIEIKKDKNGKYTITKIKVTVYKNGKKILSAEELLKKLLKSAG [r5_842_TrROS_Hall] | 4.38 ± 0.22 | 1.71 ± 0.21 | 4.31 ± 0.43 |
| SAGGSAGGSAGGAERLPDGRWRFTLRYRPGEDGEPEIVVEVEVDVPPGLAELPVVVVTGSAGGSAGGSAGGS [r10_672_TrMRF] | 3.4 ± 0.068 | 0.542 ± 0.086 | 2.6 ± 0.13 |
| SAGGSAKEVKIKVEVKYNKETKKYVIKVTVTDKNGKKKTVEIVIENMTKEEIEKKAKELAKELIKKSAGGSA [r15_526_TrROS_Hall] | 4.28 ± 0.22 | 1.36 ± 0.11 | 3.6 ± 0.4 |
| SMIKPGEKIKKIKLKLENGEEVEATLVKNEDGSLVLFIKVDGEVYVFTFNPDGEIKIEKVSKEEAEKLLKSA [r9_1144_TrROS_Hall] | 3.79 ± 0.046 | 2.05 ± 0.097 | 3.4 ± 0.15 |
| SAGGEVTLVLRAESAEEAKAAAEALKALFPDVEVTVEYDEETKEVTVTIKLKPPPPLTEEELEKLKKSAGGS [r16_674_TrROS_Hall] | 3.44 ± 0.22 | 0.257 ± 0.36 | 2.93 ± 0.41 |
| SAGGGGMTSSSTLTDPVTGASVSVTTTLLPDGTPVVTLTLSDGTVVTFTFPPGNPPTLEEIAAFIAARSAGG [r13_492_JUSTAS] | 5.37 ± 0.13 | 2.97 ± 0.12 | 5.15 ± 0.17 |
| SAEEKPERTVTVTLTLTETRTVTKNENGEETTVTETRTLTLTLTVTVPEDEELRKKAEELAKELLEALSSAG [r14_223_TrROS_Hall] | 5.42 ± 0.41 | 3.34 ± 0.16 | > 6 |
| SAGGSAGGSKVKKIELKLEFEFKVKVKTKTKDGKEKEEEKEVKVEIKLKFTFDKNGKLIKIEPSAGGSAGGS [r20_58_TrROS_Hall] | 4.66 ± 0.4 | 2.08 ± 0.19 | – |
| SAGGSAGGSAGSEVEEKTIKIEVDGKIYPAKVRFVKDENGKVWVYFDGKWFSAEDLEKLLSAGGSAGGSAGG [r11_690_TrROS_Hall] | 4.08 ± 0.085 | 1.44 ± 0.047 | 3.53 ± 0.16 |
| WRIRVEIEMYNPDGDPMEMEIQIPVDKLQELRQEGEPFTKEELVDEIVEIIRDMMPEHGMPIEIKIVEIVPS [r1_174_TrROS] | 1.76 ± 0.074 | 1.64 ± 0.051 | 1.76 ± 0.2 |
| SAMYKVTVTFYDPNNDTPIATREFTIEEEEIEEFKEKLKKELGIDPNQKLVITVTPVPVKGNETGKKLESAG [r14_297_JUSTAS] | 3.95 ± 0.085 | 1.7 ± 0.08 | 3.37 ± 0.23 |
| SAGGSLPELGIEARTVETVEEPNDPNKSTTYLYEVKLPDGSRILITVTKNPGGDVSEEVEVIPPEELSAGGS [r8_216_JUSTAS] | 1.74 ± 0.037 | -1.1 ± 0.7 | 1.19 ± 0.13 |
| SAGGMTVTLTVPSPEEAEAAARAIAEELRAAHPEAEVVVRPLAVVPDPATGTYTVTVPITVRLPDEPLSAGG [r13_585_JUSTAS] | 1.99 ± 0.047 | -0.437 ± 0.32 | 1.59 ± 0.078 |
| SAGGSAEEEKYYVLRVKIPVERKLPNGKVERVEVELTFVFKSKEDAEAAAEKLRELGFEVELVEKESAGGSA [r15_117_TrROS_Hall] | 5.616 ± 0.047 | 3.35 ± 0.07 | 5.52 ± 0.1 |
| SAGGSAMTVTVELEFEPVTVTDADGKEREVPVRVKVTAKVELVRDPETGELVERVEVTSIEIEVEPSAGGSA [r15_884_TrROS_Hall] | 1.92 ± 0.079 | 1.73 ± 0.069 | 1.87 ± 0.15 |
| SAGGKKEVKIEIKKEGDKLVIKIEEVDGKLYVTLPNGEIVEIEFDEETGEIKIRFKNGEELTFKLPPSAGGS [r16_602_TrROS_Hall] | 4.03 ± 0.088 | 1.62 ± 0.078 | 3.58 ± 0.13 |
| SAGGSAGGKKIKVKEIEIEINGKKYKITIYPDGTIKIEFEDGSTITIKITNKDGSEITIEIKAPSAGGSAGG [r6_239_TrROS_Hall] | 3.9 ± 0.27 | 1.78 ± 0.22 | 3.33 ± 0.46 |
| SAGGSAGGSAGGIDPDDPGYTRVIPIIFVIPNGRVWKMSIWVYPNNNIMIEIEWIPAGDISAGGSAGGSAGG [r7_214_TrROS] | 5.27 ± 0.19 | 2.91 ± 0.16 | 4.74 ± 0.17 |

Record cards, from the list above. Values in the order: folding stability dG unfold [1] [kcal/mol] | folding stability dG unfold [2] [kcal/mol] | folding stability dG unfold [3] [kcal/mol]
SAGGKKEVKIEIKKEGDKLVIKIEEVDGKLYVTLPNGEIVEIEFDEETGEIKIRFKNGEELTFKLPPSAGGS [r16_602_TrROS_Hall] reads 4.03 ± 0.088 | 1.62 ± 0.078 | 3.58 ± 0.13
SAEEKPERTVTVTLTLTETRTVTKNENGEETTVTETRTLTLTLTVTVPEDEELRKKAEELAKELLEALSSAG [r14_223_TrROS_Hall] reads 5.42 ± 0.41 | 3.34 ± 0.16 | > 6
